According to the supplement of paper PMC4604168 (melanoma cell lines):
The list shows a part of the results. Repeats are few or missing, and single values can be far off.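 The apoptosis fraction was the count of cleaved-PARP antibody-stained nuclei relative to all DNA-stained nuclei, imaged in 1,536-well plates. Screening doses were set so most cells survived, and baseline and induced cleaved-PARP levels vary greatly across cell lines.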

Assays:
Experiment in all cases: cleaved PARP positive nuclei fraction relative to DMSO control; melanoma cells; higher = more apoptosis
Conditions in all cases: library dose: low library concentration; 72 h
[1] = system: WM115
[2] = system: WM1716
[3] = system: WM1745
[4] = system: WM3526
[5] = system: WM3619
[6] = system: WM451Lu

Row | Compound | cleaved PARP positive nuclei fraction [1] [%] | cleaved PARP positive nuclei fraction [2] [%] | cleaved PARP positive nuclei fraction [3] [%] | cleaved PARP positive nuclei fraction [4] [%] | cleaved PARP positive nuclei fraction [5] [%] | cleaved PARP positive nuclei fraction [6] [%]
1 | CCN(CC)CCCCNc1ncc2cc(-c3cc(OC)cc(OC)c3)c(NC(=O)NC(C)(C)C)nc2n1 + Oc1cc(-c2nc(-c3ccccc3)[nH]c2-c2ccncc2)ccc1Cl [L779450] (first compound 0.1 µM, partner dose 0.2 µM) | 188 | 63.9 | 105 | 36.9 | 72 | 197
2 | COC(=O)c1sccc1S(=O)(=O)Nc1ccc(Nc2ccccc2)cc1OC + COc1ccc(-c2ccc3c(N4CCOCC4)nc(N4C[C@@H](C)O[C@@H](C)C4)nc3n2)cc1CO [KU0063794] (first compound 1 µM, partner dose 0.02 µM) | 53.5 | 110 | 105 | 67.1 | 190 | 106
3 | CCN(CC)CCCCNc1ncc2cc(-c3cc(OC)cc(OC)c3)c(NC(=O)NC(C)(C)C)nc2n1 + Cc1cc([N+](=O)[O-])ccc1NS(=O)(=O)c1cc(Cl)ccc1Cl [FH535] (first compound 0.1 µM, partner dose 1 µM) | 162 | 82.6 | 116 | 72.9 | 116 | 125
4 | O=C(Nc1ccccc1)c1cc([N+](=O)[O-])ccc1Cl + CCCCCCCCCCCC1=C(O)C(=O)C=C(O)C1=O [Embelin] (first compound 2 µM, partner dose 1.2 µM) | 96.2 | 62.3 | 113 | 81.7 | 91.7 | 267
5 | CCc1ccc(CCOc2ccc(CC3SC(=O)NC3=O)cc2)nc1 (centres undefined) [pioglitazone] + CCCCCCCCCCCC1=C(O)C(=O)C=C(O)C1=O [Embelin] (first compound 2 µM, partner dose 1.2 µM) | 56.2 | 8.33 | 118 | 126 | 74.6 | 70.2
6 | CN(C)S(=O)(=O)c1ccc2c(c1)/C(=C/c1cc3c([nH]1)CCCC3)C(=O)N2 + COc1cc(N2CCC(N3CCN(C)CC3)CC2)ccc1Nc1ncc(Cl)c(Nc2ccccc2S(=O)(=O)C(C)C)n1 [NVP-TAE684] (first compound 0.4 µM, partner dose 0.08 µM) | 181 | 60.1 | 279 | 86.6 | 82.1 | 48.3
7 | Oc1nc(-c2ccc(C(F)(F)F)cc2)nc2c1CSCC2 + CCCCCCCCCCCC1=C(O)C(=O)C=C(O)C1=O [Embelin] (first compound 2 µM, partner dose 1.2 µM) | 68.2 | 108 | 143 | 59.7 | 84.1 | 65
8 | CCc1ccc(CCOc2ccc(CC3SC(=O)NC3=O)cc2)nc1 (centres undefined) [pioglitazone] + COc1cc2ncnc(Nc3ccc(Oc4ccccc4)cc3)c2cc1OC [SrcI1] (first compound 2 µM, partner dose 2 µM) | 45.6 | 152 | 113 | 63.7 | 84.2 | 47.7
9 | O=C(O)C(=O)Nc1sc2c(c1C(=O)O)CCNC2 + COc1cc(N2CCC(N3CCN(C)CC3)CC2)ccc1Nc1ncc(Cl)c(Nc2ccccc2S(=O)(=O)C(C)C)n1 [NVP-TAE684] (first compound 1.66667 µM, partner dose 0.08 µM) | 62.9 | 109 | 118 | 71.9 | 72.5 | 121
10 | CCc1ccc(CCOc2ccc(CC3SC(=O)NC3=O)cc2)nc1 (centres undefined) [pioglitazone] + c1cc(-c2cnn3cc(-c4ccc(OCCN5CCCCC5)cc4)cnc23)ccn1 [Dorsomorphin] (first compound 2 µM, partner dose 0.4 µM) | 52 | 142 | 103 | 78.4 | 67.1 | 29.6
11 | COc1cc2ncnc(Nc3ccc(Oc4ccccc4)cc3)c2cc1OC + Cn1cc(/C=C2\C(=O)Nc3cccnc32)c2ccccc21 [GW441756] (first compound 2 µM, partner dose 0.4 µM) | 134 | 86.6 | 274 | 96.6 | 79.9 | 136
12 | COc1cc2c(Oc3ccc4[nH]c(C)cc4c3F)ncnc2cc1OCCCN1CCCC1 [cediranib] + O=S(=O)(c1ccccc1)N(CC(F)(F)F)c1ccc(C(O)(C(F)(F)F)C(F)(F)F)cc1 [T0901317] (first compound 0.4 µM, partner dose 1.4 µM) | 86 | 70.9 | 117 | 119 | 93.9 | 127
13 | O=C1NC(=O)/C(=C/c2ccc(-c3ccc(F)cc3O)o2)S1 + O=c1cc(-c2cccc3c2Sc2ccccc2S3)oc(N2CCOCC2)c1 [KU55933] (first compound 1 µM, partner dose 1 µM) | 220 | 65.5 | 89.1 | 93.1 | 160 | 61.4
14 | NCC(=O)Nc1ccc(-n2nc(C(F)(F)F)cc2-c2ccc3c(ccc4ccccc43)c2)cc1 + CN(NC(=O)CC(=O)NN(C)C(=S)c1ccccc1)C(=S)c1ccccc1 [STA4783] (first compound 1 µM, partner dose 0.006 µM) | 131 | 162 | 194 | 225 | 176 | 172

Single records, from the list above. Order of values: cleaved PARP positive nuclei fraction [1] [%] | cleaved PARP positive nuclei fraction [2] [%] | cleaved PARP positive nuclei fraction [3] [%] | cleaved PARP positive nuclei fraction [4] [%] | cleaved PARP positive nuclei fraction [5] [%] | cleaved PARP positive nuclei fraction [6] [%]
COc1cc2ncnc(Nc3ccc(Oc4ccccc4)cc3)c2cc1OC + Cn1cc(/C=C2\C(=O)Nc3cccnc32)c2ccccc21 [GW441756] (first compound 2 µM, partner dose 0.4 µM) is listed as 134 | 86.6 | 274 | 96.6 | 79.9 | 136
NCC(=O)Nc1ccc(-n2nc(C(F)(F)F)cc2-c2ccc3c(ccc4ccccc43)c2)cc1 + CN(NC(=O)CC(=O)NN(C)C(=S)c1ccccc1)C(=S)c1ccccc1 [STA4783] (first compound 1 µM, partner dose 0.006 µM) is listed as 131 | 162 | 194 | 225 | 176 | 172
